# Source: PubChem BioAssay AID540256 (National Center for Advancing Translational Sciences (NCATS), 2011)
# Out of some 300,000 compounds screened, about 3,700 (1.2%) were called active. Inconclusive means that the source gave no clear call. Such entries were picked first, then a sample of the others. The call rests on the fitted dose curve; tested in HEK293 cells. Where the call is inconclusive, the potency comes from a doubtful curve fit.
# Assay: qHTS for Inhibitors of binding or entry into cells for Lassa Virus; further: nearly all actives have a fitted effect of over 50% in size
# Conditions: Lassa virus pseudotype entry inhibition, cell reporter; activity change, negative = inhibition: at 37.9 µM (top of the series) unless noted
# On the % scale 0 is the no-effect control and ±100 the full control effect; potency means the concentration at half of the fitted maximal effect.
SMILES,Potency,"activity change, negative = inhibition"
Cc1cccc(NS(=O)(=O)c2ccc(C(=O)N3CCN(c4ccccc4O)CC3)cc2)c1C,"inconclusive: 35.5 µM [inhibitor, single point]",–
O=C(CSc1nccn1Cc1ccc(Cl)cc1)NC1CCCC1,–,inactive: -1.11% [at 46.1 µM]
Cc1ccc(CN2CCSc3ccc(C(=O)N4CCN(c5cccc(C)c5C)CC4)cc32)cc1,–,inactive: 4.91% [at 46.1 µM]
C/C(=N\Nc1ccccc1)c1c(O)n(Cc2ccccc2)c(=O)[nH]c1=O,"inconclusive: 10 µM [inhibitor, partial curve, poor fit]",–
Clc1ccc2nc(-c3ccccn3)c(Nc3ccc4c(c3)OCO4)n2c1,"inconclusive: 5.62 µM [activator, single point]",–
O=C(CN1C(=O)c2ccc([N+](=O)[O-])cc2C1=O)NC1CCCCCC1,–,inactive: 0.663%
CN1/C(=C\C=C2/C(=O)Oc3ccccc3C2=O)C(C)(C)c2ccccc21,"inconclusive: 6.51 µM [activator, single point]",–
CC1CCC2(CC1)NC(=O)N(CC(=O)N(Cc1ccccc1)C(C)(C)C)C2=O (stereo not drawn),–,inactive: 19.4%
CCOc1cc(/C=N/NC(=O)Nc2ccccc2)ccc1O,"inconclusive: 11.2 µM [inhibitor, partial curve]",–
CN1C2CCC1CC(NC(=O)c1ccc(Cl)cc1)C2 (stereo not drawn),"inconclusive: 11.2 µM [activator, partial curve, poor fit]",–
Cc1nc(N)sc1-c1csc(Nc2ccc(Cl)cn2)n1,–,inactive: -8.93%
COc1ccc(Cc2nc3ccc(C(=O)NC(C)Cc4ncccc4C)cc3o2)cc1OC (stereo not drawn),"inconclusive: 22.4 µM [inhibitor, single point]",–
CCOc1ccccc1NC(=O)Cn1c(=O)ccc2cc(S(=O)(=O)N3CCC(C)CC3)ccc21,"inconclusive: 11.2 µM [inhibitor, partial curve, poor fit]",–
O=c1c2c3c(sc2nnn1Cc1ccc(Br)cc1)CCCC3,–,inactive: -2.06% [at 46.1 µM]
Clc1ccc2nc(-c3ccccc3)nc(C(Cl)Cl)c2c1,"inconclusive: 3.55 µM [inhibitor, partial curve, poor fit]",–
O=S(=O)(NCCc1csc(-c2ccc(F)cc2)n1)c1ccc(Cl)cc1,–,inactive: 2.05% [at 46.1 µM]
CC(=O)c1ccc(N2CCN(C(=O)C3CCN(S(=O)(=O)c4cccc5nonc45)CC3)CC2)cc1,"inconclusive: 4.47 µM [activator, full curve, poor fit]",–
COc1ccc(NC(=O)c2ccc3c(c2)C(=O)N(CC2CCCO2)C3=O)cc1 (stereo not drawn),–,inactive: -15.5% [at 46.1 µM]
Cc1ncc(CO)c(/C=N/NC(=O)c2cccc(S(=O)(=O)N3CCCC3)c2)c1O,"inconclusive: 11.2 µM [inhibitor, partial curve, poor fit]",–
CC(C)C(=O)NNC(=O)CN1CCN(c2nc(-c3ccccc3)cs2)CC1,"inconclusive: 35.5 µM [inhibitor, partial curve, poor fit]",–
Cc1cc(C)nc(NC(=O)c2ccc(COc3ccccc3Cl)cc2)c1,"inconclusive: 3.98 µM [inhibitor, partial curve, poor fit]",–
O=C(/C=C/c1ccccc1Cl)c1ccc(O)cc1,–,inactive: -19.7%

SMILES,Potency,"activity change, negative = inhibition"
CCn1c(=O)n(CC)c2cc(N3CCCCC3)c(NC(=O)Nc3cc(C)cc(C)c3)cc21,"inconclusive: 2.82 µM [inhibitor, full curve]",–
COc1ccc(OC)c(NC(=O)C(Sc2ccccc2)c2ccccc2)c1 (stereo not drawn),"inconclusive: 35.5 µM [inhibitor, single point]",–
Cc1cccc(NC(=O)c2cccc(S(=O)(=O)N(C)c3ccccc3)c2)n1,"inconclusive: 35.5 µM [inhibitor, single point]",–
COc1ccc(N(CC(=O)N/N=C/c2cc(Br)c(C)o2)S(=O)(=O)c2ccc(NC(C)=O)cc2)cc1,"inconclusive: 6.31 µM [inhibitor, partial curve]",–
COc1ccc2c(C(=O)CN3CC(C)OC(C)C3)c[nH]c2c1 (stereo not drawn),–,inactive: 26%
O=S(=O)(NC1CCCC1)c1ccc(S(=O)(=O)N2CCCN(Cc3ccccc3)C2)cc1,"inconclusive: 14.6 µM [inhibitor, partial curve, poor fit]",–
Cc1cccc(-c2noc(CN(C(=O)COc3ccc(Br)cc3C)C(C)C)n2)c1,–,inactive: -6.69% [at 46.1 µM]
C=CCn1c(C)c(/C=C/c2cc[n+](C)cc2)c2ccccc21,"inconclusive: 11.2 µM [inhibitor, partial curve, poor fit]",–
COc1ccc(CN2CC(COCc3ccccc3)Oc3ccccc3S2(=O)=O)cc1 (stereo not drawn),"inconclusive: 6.28 µM [inhibitor, partial curve, poor fit]",–
O=C1Cc2cc(NS(=O)(=O)c3ccc(Cl)cc3)cc3c2N1CCC3,–,inactive: -1.61%
CC(C)NCCCCOc1cccc(Br)c1,"inconclusive: 1.26 µM [inhibitor, single point]",–
COc1ccccc1NC(=O)C1=C(C)Nc2nc3ccccc3n2C1c1cccs1 (stereo not drawn),"inconclusive: 5.17 µM [inhibitor, partial curve, poor fit]",–
COc1ccccc1/C=C1\SC(=S)N(CCC(=O)N2CCCCC2CCO)C1=O (stereo not drawn),–,inactive: -11.6% [at 46.1 µM]
CCc1ccc(CCC(=O)Nc2sc3c(c2C#N)CCCC3)o1,"inconclusive: 10.3 µM [inhibitor, partial curve, poor fit]",–
COc1ccccc1CNC(=O)C(=O)NCC(c1ccco1)S(=O)(=O)c1cccs1 (stereo not drawn),"inconclusive: 0.631 µM [inhibitor, full curve, poor fit]",–
O=C(Nc1nccs1)C(Br)C(Br)c1ccccc1 (stereo not drawn),"inconclusive: 11.2 µM [inhibitor, single point]",–
Cc1ccc(C(=O)N(C)c2nnc(-c3ccncc3)s2)cc1,–,inactive: 11%
COc1ccc(-n2c(Cc3cccn3C)nnc2SCC(=O)Nc2ccc(C)cc2C)cc1,–,inactive: -26%
CN(c1ccccc1)c1nc(N2CCCC2)nc(-n2ccnc2)n1,"inconclusive: 5.8 µM [inhibitor, partial curve]",–
Cc1ccc2nc(/C(C#N)=C\c3ccc(Oc4ccc([N+](=O)[O-])cn4)cc3)[nH]c2c1,–,inactive: -14.4%
C/C(=N\Nc1ccccc1Cl)c1ccc(-n2ccnc2)cc1,"inconclusive: 35.5 µM [activator, single point]",–

# One compound at a time (already shown). Values in the order: Potency | activity change, negative = inhibition
# O=S(=O)(NC1CCCC1)c1ccc(S(=O)(=O)N2CCCN(Cc3ccccc3)C2)cc1 reads inconclusive: 14.6 µM [inhibitor, partial curve, poor fit] | –
# C/C(=N\Nc1ccccc1Cl)c1ccc(-n2ccnc2)cc1 reads inconclusive: 35.5 µM [activator, single point] | –
